# Source: PubChem BioAssay AID720504 (National Center for Advancing Translational Sciences (NCATS), 2013)
# Sequences of proteins named here, by UniProt entry; tags and fusion partners are left off.
# UniProt P53350, whole entry, looked up: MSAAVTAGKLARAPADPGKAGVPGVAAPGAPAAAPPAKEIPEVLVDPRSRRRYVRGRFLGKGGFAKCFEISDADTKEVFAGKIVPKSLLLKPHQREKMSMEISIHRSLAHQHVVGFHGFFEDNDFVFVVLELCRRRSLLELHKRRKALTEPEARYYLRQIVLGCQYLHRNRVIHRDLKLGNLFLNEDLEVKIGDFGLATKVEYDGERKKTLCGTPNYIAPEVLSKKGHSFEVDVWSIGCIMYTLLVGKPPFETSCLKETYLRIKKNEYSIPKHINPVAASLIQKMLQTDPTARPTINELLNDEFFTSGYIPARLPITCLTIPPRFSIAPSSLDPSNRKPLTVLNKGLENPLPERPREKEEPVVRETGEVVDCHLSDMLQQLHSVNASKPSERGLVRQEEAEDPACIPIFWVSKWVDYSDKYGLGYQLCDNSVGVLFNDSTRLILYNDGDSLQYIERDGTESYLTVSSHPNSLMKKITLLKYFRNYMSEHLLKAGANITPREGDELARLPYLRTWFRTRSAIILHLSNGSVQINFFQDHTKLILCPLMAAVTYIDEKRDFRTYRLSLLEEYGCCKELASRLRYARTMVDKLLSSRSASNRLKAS
# In all, about 360,000 compounds went through this assay and about 10,000 (2.8%) were called active. The inconclusive results got no clear call from the source; some entries with a clear call stand among them for comparison. Calls come from the whole dose curve; as a rule, active = well fitted inhibition curve with a large enough effect; inconclusive = small, poorly fitted or top-dose-only effect; inactive = flat fitted curve, though single readings scatter. A potency beside an inconclusive call is a rough fit, not a confirmed value.
# Target: Serine/threonine-protein kinase PLK1 (Homo sapiens) (UniProt P53350)
# Test: qHTS for Inhibitors of PLK1-PDB (polo-like kinase 1 - polo-box domain): Primary Screen; note: nearly all actives have a fitted effect of over 65% in size; for max response, negative = inhibition: series mostly up to about 57 µM
# Conditions: Plk1 PBD binding of FITC phosphopeptide, fluorescence polarization
# % is set by controls: 0 for no effect and ±100 for the full control effect; potency is the fitted concentration of half-maximal effect.
Structure (SMILES),Potency,"max response, negative = inhibition"
CC1(C)CC(=O)C2=C(C1)c1c(ccc3ccccc13)NC2c1cc([N+](=O)[O-])cc([N+](=O)[O-])c1O (stereo not drawn),active: 3.36 µM,
CCCCC(=O)N(c1ccc(C(=O)O)cc1)c1nc(-c2ccc(Cl)cc2)c(CC)s1,active: 26.7 µM,
C[n+]1c(-c2ccccc2)sc([S-])c1-c1ccccc1,"inconclusive: 29.9 µM [inhibitor, partial curve]",
CCCC(C(=O)O)N1C(=O)/C(=C2\C(=O)N(C)c3ccccc32)SC1=S (stereo not drawn),"inconclusive: 26.7 µM [inhibitor, single point]",
Cc1ccc(NC2c3ncccc3C(=O)N2Cc2cccs2)cc1 (stereo not drawn),active: 21.2 µM,
O=C1NC(c2cccs2)Nc2ccccc21 (stereo not drawn),active: 2.67 µM,
O=C(NC(NC(=S)Nc1ccccc1C(=O)O)C(Cl)(Cl)Cl)c1cccc([N+](=O)[O-])c1 (stereo not drawn),active: 23.8 µM,
CNC(=S)N/N=C(\C)c1ccc(N2CCOCC2)cc1,,inconclusive: -31.5% [inhibitor]
O=C(Nc1nc2c(s1)CCCC2)Oc1ccccc1,,inactive: -1.6%
N#C/C(=C\c1cccs1)C(=O)NCc1ccccc1,active: 3.36 µM,
Cc1cc(C)cc(NC(=S)N2CCN(c3ncccn3)CC2)c1,,inconclusive: -10.4% [inhibitor]
CC(OC(=O)Cn1cnc2c1c(=O)n(C)c(=O)n2C)C(=O)Nc1ccc(Cl)cc1 (stereo not drawn),,inactive: -2.37%
COc1ccc(-c2csc(NC(=O)c3ccccc3Br)c2C(=O)O)cc1,,inactive: -14.5%
Cc1c(Cl)cccc1NC(=O)C1NC(=O)CC1c1ccccc1 (stereo not drawn),,inactive: -12.9%
COc1ccc(-n2c(Cc3cccn3C)nnc2SCC(=O)NCCc2ccccc2)cc1,,inactive: -8.02%
CCOc1ccc(C(=O)NCc2cccs2)cc1,"inconclusive: 26.7 µM [inhibitor, partial curve]",
COc1cc(OC)cc(-c2c(-c3cccs3)c3cc(-c4cccc5[nH]ccc45)ccc3n2C)c1,,inactive: 2.31%
COc1cc(C)c(NC(=O)C(=S)NCCc2ccccc2)cc1C,active: 11.9 µM,
Cc1nc2ncccn2c1-c1csc(Nc2ccc(O)cc2)n1,,inactive: -5.85%
CCOC(=O)CSc1nc(C)cc(C)c1C#N,"inconclusive: 26.7 µM [inhibitor, single point]",
Cc1oc2cc(O)ccc2c(=O)c1-c1cnn(-c2ccccc2)c1,,inactive: -7.29%
CN(C)CCCN(CCCNC(=O)/C=N/O)Cc1ccccc1,"inconclusive: 37.7 µM [inhibitor, single point]",
CC(C)(C)C1CCc2c(sc(N)c2C(N)=O)C1 (stereo not drawn),"inconclusive: 18.9 µM [inhibitor, partial curve]",
CC(=O)N1CCOc2ccc(S(=O)(=O)NCCc3ccc(C)cc3)cc21,"inconclusive: 29.9 µM [inhibitor, single point]",

# Some of the entries so far, as tab-separated lines.
Structure (SMILES)	Potency	max response, negative = inhibition
O=C1NC(c2cccs2)Nc2ccccc21 (stereo not drawn)	active: 2.67 µM	
O=C(NC(NC(=S)Nc1ccccc1C(=O)O)C(Cl)(Cl)Cl)c1cccc([N+](=O)[O-])c1 (stereo not drawn)	active: 23.8 µM	
CNC(=S)N/N=C(\C)c1ccc(N2CCOCC2)cc1		inconclusive: -31.5% [inhibitor]
O=C(Nc1nc2c(s1)CCCC2)Oc1ccccc1		inactive: -1.6%
N#C/C(=C\c1cccs1)C(=O)NCc1ccccc1	active: 3.36 µM	
Cc1cc(C)cc(NC(=S)N2CCN(c3ncccn3)CC2)c1		inconclusive: -10.4% [inhibitor]
CC(OC(=O)Cn1cnc2c1c(=O)n(C)c(=O)n2C)C(=O)Nc1ccc(Cl)cc1 (stereo not drawn)		inactive: -2.37%
COc1ccc(-c2csc(NC(=O)c3ccccc3Br)c2C(=O)O)cc1		inactive: -14.5%
Cc1c(Cl)cccc1NC(=O)C1NC(=O)CC1c1ccccc1 (stereo not drawn)		inactive: -12.9%
COc1ccc(-n2c(Cc3cccn3C)nnc2SCC(=O)NCCc2ccccc2)cc1		inactive: -8.02%
CCOc1ccc(C(=O)NCc2cccs2)cc1	inconclusive: 26.7 µM [inhibitor, partial curve]	
COc1cc(OC)cc(-c2c(-c3cccs3)c3cc(-c4cccc5[nH]ccc45)ccc3n2C)c1		inactive: 2.31%
COc1cc(C)c(NC(=O)C(=S)NCCc2ccccc2)cc1C	active: 11.9 µM	

# Given with tabs: entries from further up
Structure (SMILES)	Potency	max response, negative = inhibition
Cc1nc2ncccn2c1-c1csc(Nc2ccc(O)cc2)n1		inactive: -5.85%
CCOC(=O)CSc1nc(C)cc(C)c1C#N	inconclusive: 26.7 µM [inhibitor, single point]	

# The listing continues.

Structure (SMILES),Potency,"max response, negative = inhibition"
Cc1ccc(-c2csc(NC(=O)/C=C/c3ccco3)c2C(=O)O)cc1,"inconclusive: 29.9 µM [inhibitor, single point]",
O=C(O)C(=Cc1ccncc1)c1cccc2ccccc12,,inactive: -5.69%
O=C1CC(C(=O)Nc2cccc(F)c2)n2ncnc2N1 (stereo not drawn),,inactive: -6.34%
O=[N+]([O-])c1ccc2[nH]c(O)c(N=NC(=S)Nc3cccnc3)c2c1,"inconclusive: 33.6 µM [inhibitor, partial curve]",
COc1ccc(OCc2n[nH]c(=S)o2)cc1,"inconclusive: 29.9 µM [inhibitor, partial curve]",
O=C(Cn1nnc2ccccc2c1=O)NCc1ccco1,,inactive: -5.47%
O=C(Nc1nnc(-c2ccc3c(c2)CCCC3)o1)c1ccc(Cl)cc1Cl,active: 21.2 µM,
Cc1ccc2nc(N/C(=N/S(=O)(=O)c3cccs3)c3ccccc3Cl)sc2c1,"inconclusive: 33.6 µM [inhibitor, single point]",
CC(=O)c1ccc(N2CCN(S(=O)(=O)c3ccc4c(c3)NC(=O)CC(=O)N4)CC2)cc1,active: 26.7 µM,
CCN(CC(=O)N1CCC(C(N)=O)CC1)S(=O)(=O)c1cc(Cl)ccc1Cl,"inconclusive: 33.6 µM [inhibitor, partial curve]",
Cc1ccc(C(=O)CSC2=NC(N)=C(C#N)C3(CCCCC3)C2C(N)=O)cc1 (stereo not drawn),"inconclusive: 21.2 µM [inhibitor, partial curve]",
CC(C)Cc1cc(C(=O)N2CCCC(C(=O)c3cc(F)ccc3F)C2)no1 (stereo not drawn),,inconclusive: -9.59% [inhibitor]
CC(=O)Nc1ccc(NC(=O)CCn2nnc3ccccc32)cc1,active: 18.9 µM,
CCC(=O)N1CCc2cc(S(=O)(=O)NC(Cc3ccccc3)C(=O)NC3CCCC3)ccc21 (stereo not drawn),"inconclusive: 33.6 µM [inhibitor, single point]",
CCOC(=O)CCSc1cc(C)c2ccccc2n1,"inconclusive: 26.7 µM [inhibitor, single point]",
CCN1/C(=C/C(=O)c2ccco2)Sc2ccccc21,"inconclusive: 29.9 µM [inhibitor, partial curve]",
O=C(NCCNC(=O)c1ccccc1Br)c1cccnc1,,inactive: -8.68%
COc1ccc(N/C=C2\CCOC2=O)cc1,,inactive: -11.5%
Cc1nc([N+](=O)[O-])c(Br)n1CC(=O)c1cccc([N+](=O)[O-])c1,"inconclusive: 18.9 µM [inhibitor, partial curve, poor fit]",
CCCCn1nnnc1SCC(=O)NCc1ccco1,"inconclusive: 23.8 µM [inhibitor, single point]",
O=C(CSc1nnc(Cc2cc(=O)[nH]c(=O)[nH]2)n1-c1ccc(Cl)cc1)NC1CCCC1,"inconclusive: 37.7 µM [inhibitor, single point]",
Cn1cnnc1SCC(=O)c1cc2ccccc2o1,"inconclusive: 21.2 µM [inhibitor, single point]",
COc1ccc(C2=NNC(=O)CC2)cc1,,inconclusive: -30.9% [inhibitor]
Cc1c(CCOC(=O)CC23CC4CC(CC(C4)C2)C3)sc[n+]1CC(=O)c1ccc(Br)cc1,"inconclusive: 26.7 µM [inhibitor, single point]",
